From paper doi:10.1101/2020.04.03.023721
Results are given in words; binding and its absence hold for the method and conditions named. Binding seen in cells or lysates may run through a third protein. Some results given as binding are weak or reduced against the parent protein; the word gives no strength. Where a sequence is shown, tags or fusion partners need not be part of it.

Amino acid sequences for entries named in this document (tags omitted).
UniProt P49023: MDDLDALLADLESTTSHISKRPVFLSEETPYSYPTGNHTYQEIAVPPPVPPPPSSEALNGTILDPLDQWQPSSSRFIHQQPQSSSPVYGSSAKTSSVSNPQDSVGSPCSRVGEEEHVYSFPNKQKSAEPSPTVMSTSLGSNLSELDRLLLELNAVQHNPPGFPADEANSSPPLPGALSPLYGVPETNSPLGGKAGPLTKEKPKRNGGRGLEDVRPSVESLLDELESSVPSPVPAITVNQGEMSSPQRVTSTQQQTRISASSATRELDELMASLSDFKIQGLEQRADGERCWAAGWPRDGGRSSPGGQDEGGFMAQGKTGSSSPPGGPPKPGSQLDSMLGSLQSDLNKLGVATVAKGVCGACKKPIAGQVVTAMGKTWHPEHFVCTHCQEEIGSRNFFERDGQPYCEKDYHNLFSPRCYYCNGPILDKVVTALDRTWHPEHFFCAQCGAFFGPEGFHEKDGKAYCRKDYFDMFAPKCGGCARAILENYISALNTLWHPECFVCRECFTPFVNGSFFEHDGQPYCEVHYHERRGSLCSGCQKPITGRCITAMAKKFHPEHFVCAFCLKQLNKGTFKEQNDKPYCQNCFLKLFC

Legend:
Experiment in all cases: co-IP
[1] = target: T1, Flag-P2X7(31-595) (UniProt Q99572)
T1 sequence: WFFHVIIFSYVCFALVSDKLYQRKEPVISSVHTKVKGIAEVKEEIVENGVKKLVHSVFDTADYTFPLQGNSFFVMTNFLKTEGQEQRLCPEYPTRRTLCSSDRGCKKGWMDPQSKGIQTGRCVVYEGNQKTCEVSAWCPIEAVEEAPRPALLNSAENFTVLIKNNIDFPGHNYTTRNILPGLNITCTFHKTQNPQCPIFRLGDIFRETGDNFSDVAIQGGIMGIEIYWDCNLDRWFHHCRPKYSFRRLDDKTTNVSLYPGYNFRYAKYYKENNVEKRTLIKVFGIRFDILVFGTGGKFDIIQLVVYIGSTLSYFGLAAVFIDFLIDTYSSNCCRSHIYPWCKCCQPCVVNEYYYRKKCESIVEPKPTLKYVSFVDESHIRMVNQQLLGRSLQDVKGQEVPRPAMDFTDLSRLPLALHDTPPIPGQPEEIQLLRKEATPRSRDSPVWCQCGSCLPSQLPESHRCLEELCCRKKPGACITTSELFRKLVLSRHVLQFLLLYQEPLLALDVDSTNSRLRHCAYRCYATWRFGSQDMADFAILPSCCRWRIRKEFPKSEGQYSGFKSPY

[2] = target: T2, Flag-P2X7(30-595) (UniProt Q99572)
T2 sequence: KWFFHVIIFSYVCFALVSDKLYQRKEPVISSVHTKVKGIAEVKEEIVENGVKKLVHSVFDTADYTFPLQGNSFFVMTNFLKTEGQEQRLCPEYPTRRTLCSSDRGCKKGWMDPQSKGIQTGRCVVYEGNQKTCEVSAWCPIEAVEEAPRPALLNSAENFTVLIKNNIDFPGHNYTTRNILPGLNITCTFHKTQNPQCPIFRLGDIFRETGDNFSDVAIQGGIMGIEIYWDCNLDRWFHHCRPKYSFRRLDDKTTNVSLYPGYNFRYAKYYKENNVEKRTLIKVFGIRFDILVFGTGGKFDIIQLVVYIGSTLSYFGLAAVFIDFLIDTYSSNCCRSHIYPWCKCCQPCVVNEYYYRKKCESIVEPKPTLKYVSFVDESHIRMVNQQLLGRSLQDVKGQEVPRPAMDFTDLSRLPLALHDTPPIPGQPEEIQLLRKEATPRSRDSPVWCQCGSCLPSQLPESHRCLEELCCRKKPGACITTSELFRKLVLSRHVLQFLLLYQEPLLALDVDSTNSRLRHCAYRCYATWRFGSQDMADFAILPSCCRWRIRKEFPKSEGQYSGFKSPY

[3] = target: T3, Flag-UPS13 (human) (UniProt Q92995)
T3 sequence: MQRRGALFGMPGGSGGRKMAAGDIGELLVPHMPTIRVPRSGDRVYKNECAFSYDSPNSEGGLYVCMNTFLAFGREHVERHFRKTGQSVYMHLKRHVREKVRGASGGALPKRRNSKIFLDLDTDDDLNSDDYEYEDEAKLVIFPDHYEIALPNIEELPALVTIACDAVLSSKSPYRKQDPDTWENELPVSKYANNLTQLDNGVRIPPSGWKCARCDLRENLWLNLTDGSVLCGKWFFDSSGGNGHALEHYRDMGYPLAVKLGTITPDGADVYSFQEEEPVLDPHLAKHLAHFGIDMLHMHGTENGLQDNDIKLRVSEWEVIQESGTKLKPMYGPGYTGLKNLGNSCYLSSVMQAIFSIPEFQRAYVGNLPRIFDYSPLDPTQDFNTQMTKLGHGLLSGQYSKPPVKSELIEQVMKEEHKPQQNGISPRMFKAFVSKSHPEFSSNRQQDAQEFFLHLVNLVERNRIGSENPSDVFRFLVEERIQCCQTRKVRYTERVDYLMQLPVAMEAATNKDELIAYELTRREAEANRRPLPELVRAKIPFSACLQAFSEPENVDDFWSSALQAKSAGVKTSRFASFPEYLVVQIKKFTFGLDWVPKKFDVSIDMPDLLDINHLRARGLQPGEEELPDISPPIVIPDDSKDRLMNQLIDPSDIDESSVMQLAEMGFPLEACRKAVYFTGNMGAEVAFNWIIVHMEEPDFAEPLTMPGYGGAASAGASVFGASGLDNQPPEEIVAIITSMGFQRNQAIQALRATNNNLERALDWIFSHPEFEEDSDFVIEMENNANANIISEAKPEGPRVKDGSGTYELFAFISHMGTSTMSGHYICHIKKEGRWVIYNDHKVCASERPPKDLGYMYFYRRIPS

**Q.** With HA-Paxillin (from UniProt P49023 1-591) as the substance, how does the binding [1] read?
**A.** no binding

**Q.** And the binding [2]?
**A.** binds

**Q.** What about the binding [3] of the same substance?
**A.** binds
